Data reported in PubChem BioAssay AID1347075 (National Center for Advancing Translational Sciences (NCATS), 2019).
About 5,500 (1.4%) of roughly 400,000 compounds were called active. Inconclusive means that the source gave no clear call. Such entries were picked first, then a sample of the others. Calls follow the shape of the dose curve; as a rule, active = well fitted cell-killing curve with a large enough effect; inconclusive = small, poorly fitted or top-dose-only effect, or effect the other way; inactive = flat fitted curve, though single readings scatter. Potencies of inconclusive entries are doubtful fits and often do not repeat.

Test: qHTS assay for MDR1-selective chemotherapeutics: Primary screen using the parental adenocarcinoma cell KB-3-1; also: nearly all actives have a fitted effect of over 60% in size
Conditions: KB-3-1 viability, CellTiter-Glo ATP luminescence, 72 h; activity change, negative = cytotoxic: at 46.1 µM (top of the series)
Method in brief: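 Cytotoxicity measured as CellTiter-Glo luminescence after 72 h at 37 C. Compound titrations were pinned onto drug-naive KB-3-1 parental adenocarcinoma cells grown in DMEM with 10% FBS, and normalized data fitted to concentration-response curves.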
% is scaled to controls: 0 for no effect and ±100 for the full control effect; potency is read from the fitted curve at half-maximal effect.

| Compound | Potency | activity change, negative = cytotoxic |
| --- | --- | --- |
| COc1ccc(CCNc2ncnc3sccc23)cc1OC | inconclusive: 0.651 µM [cytotoxic, full curve, poor fit] | – |
| Cc1ccc(S(=O)(=O)N2CCOCC2)cc1C(=O)NCc1cccnc1 | – | inactive: -14% |
| O=C(NCc1ccccc1Cl)c1cccc(OC2CCN(C(=O)C3CC3)CC2)c1 | inconclusive: 4.61 µM [cytotoxic, full curve] | – |
| O=C(OCC(=O)c1ccc[nH]1)c1ccc(C(F)(F)F)cc1 | inconclusive: 29.1 µM [rising, single point] | – |
| Cc1cccc(C(=O)N2CCC(=O)N([C@H](COCc3ccc(Cl)cc3)Cc3ccccc3)CC2)c1 | inconclusive: 29.1 µM [cytotoxic, single point] | – |
| COc1ccc(C2CC(c3ccccc3)=NN2C(=O)c2ccc(Cl)c([N+](=O)[O-])c2)cc1 (centres undefined) | inconclusive: 29.1 µM [cytotoxic, single point] | – |
| COc1ccc(-c2nn3c(-c4ccccc4)nnc3s2)cc1 | inconclusive: 29.1 µM [cytotoxic, single point] | – |
| COc1ccc(OC)c(NS(=O)(=O)c2ccc(N3CCCCS3(=O)=O)cc2)c1 | inconclusive: 25.9 µM [cytotoxic, single point] | – |
| CSCCC(NS(=O)(=O)c1ccc(Cl)cc1)C(=O)OCc1cccc(Cl)c1 (centres undefined) | – | inactive: -5.41% |
| O=S(=O)(c1cccnc1)N1CCN(c2nc(-c3cccs3)nc3ccccc23)CC1 | inconclusive: 18.4 µM [cytotoxic, partial curve, poor fit] | – |
| C=CCOc1c(Br)cc(CNc2ccc(NC(=O)C(C)C)c(OC)c2)cc1OC | inconclusive: 29.1 µM [cytotoxic, single point] | – |
| O=C(Oc1coc(CSc2nnc(NC(=O)c3cccs3)s2)cc1=O)c1ccccc1 | – | inactive: 18.7% |
| Cc1cc(Cl)c(OCCCN2CCCCC2)c(Br)c1 | inconclusive: 29.1 µM [cytotoxic, single point] | – |
| COC(=O)c1nc[nH]c1[N+](=O)[O-] | inconclusive: 4.61 µM [rising, full curve] | – |
| COc1ccc(-c2cc(C(=O)N(C)CCc3ccc(OC)c(OC)c3)c3ccccc3n2)cc1 | – | inactive: -22.7% |
| CCCCCCCCCCCCCCCC[n+]1ccc(C)cc1 | active: 1.64 µM | – |
| CS(=O)c1ccccc1-c1nc(-c2cc(C(F)(F)F)cc(C(F)(F)F)c2)no1 (centres undefined) | inconclusive: 25.9 µM [cytotoxic, single point] | – |
| CN(C)c1ccc(/C=C/c2c(Cl)cnc3ccccc23)cc1 | inconclusive: 18.4 µM [cytotoxic, single point] | – |
| CC1CCN(C(=O)c2ccc(NC3=C(Cl)C(=O)N(Cc4ccccc4)C3=O)cc2)CC1 | inconclusive: 20.6 µM [cytotoxic, single point] | – |
| CN(CC(=O)Nc1ccc(Cl)cc1)CC(=O)N1CCc2ccccc21 | inconclusive: 20.6 µM [cytotoxic, single point] | – |
| C[C@H](CO)N1C[C@H](C)[C@@H](CN(C)S(=O)(=O)c2ccc(F)cc2)Oc2c(NC(=O)Nc3ccc(C(F)(F)F)cc3)cccc2C1=O | inconclusive: 16.4 µM [cytotoxic, single point] | – |
| CCN(CC)C(=O)c1cccc(-c2csc(C(O)c3ccc(OC)cc3)n2)c1 (centres undefined) | inconclusive: 16.4 µM [cytotoxic, partial curve] | – |

| Compound | Potency | activity change, negative = cytotoxic |
| --- | --- | --- |
| Cn1c(O)c(N=NC(=S)Nc2ccccc2F)c2cc(S(=O)(=O)N3CCOCC3)ccc21 | inconclusive: 9.2 µM [cytotoxic, partial curve, poor fit] | – |
| Cc1ccc(NC(=O)CCC(=O)N/N=C/c2cc([N+](=O)[O-])ccc2O)cc1 | inconclusive: 29.1 µM [cytotoxic, single point] | – |
| Cc1cc(C)cc(N2C(N)=NC(N)=NC2c2cccc(Cl)c2)c1 (centres undefined) | inconclusive: 29.1 µM [cytotoxic, single point] | – |
| COc1ccc(C2C(C(=O)c3cccs3)=C(O)C(=O)N2Cc2cccnc2)cc1OC (centres undefined) | inconclusive: 25.9 µM [rising, single point] | – |
| Cc1nc2c(OCCN3C(=O)c4ccccc4C3=O)cccn2c1N(C)C(=O)CCC1CCCC1 | – | inactive: 0% |
| CCOC(=O)[C@]12Cc3c(cc(OC)c(OC)c3OC)[C@H]1N(Cc1ccccc1)C(=O)c1cc(OC)ccc12 | active: 4.61 µM | – |
| COc1ccc2c(c1)[nH]c1c(=O)n(CCC3=CCCCC3)cnc12 | – | inactive: -9.76% |
| Cc1cc(C(=O)Nc2sc3c(c2C#N)CCC(C)C3)no1 (centres undefined) | inconclusive: 16.4 µM [cytotoxic, single point] | – |
| COc1ccc(CCNC(=O)C2CC(=O)N(c3ccc(C(C)(C)C)cc3)C2)cc1OC (centres undefined) | – | inactive: -11.4% |
| COc1ccc(NC(=S)NCCC(c2ccccc2)c2ccccc2)c(OC)c1 | inconclusive: 35.5 µM [cytotoxic, single point] | – |
| CCCCSc1ccc(NC(=O)c2cccnc2)cc1 | inconclusive: 25.9 µM [cytotoxic, partial curve, poor fit] | – |
| O=C(NC1CCCCCC1)c1ccc2c(=O)n3c(nc2c1)CCCCC3 | inconclusive: 20.6 µM [cytotoxic, single point] | – |
| CCOc1ccc(CCN2C(=O)C(=O)N([C@@H](CC(C)C)CN3CCC[C@@H]3CN3C(=O)C(=O)NC[C@@H]3Cc3ccccc3)C[C@@H]2Cc2ccc(O)cc2)cc1 | inconclusive: 20.6 µM [cytotoxic, single point] | – |
| COc1ccc(CNC(=O)c2c(C)nc3ccccn23)cc1 | inconclusive: 29.1 µM [cytotoxic, single point] | – |
| COc1ccc([N+](=O)[O-])cc1NC1CCN(C(=O)c2cccs2)CC1 | – | inactive: -3.01% |
| Cc1ccc(C)c(N2CCN(C(=O)C3CCCN(c4ncnc5c4nc4n5CCCCC4)C3)CC2)c1 (centres undefined) | inconclusive: 29.1 µM [cytotoxic, single point] | – |
| COc1cc(Nc2ncc3c(n2)CCN(Cc2cccc(C)c2)C3)cc(OC)c1 | inconclusive: 29.1 µM [cytotoxic, single point] | – |
| O=C1NC[C@H](CCCCN2CCN(CC3CCCCC3)C(=O)C2=O)N(Cc2ccccc2)C1=O | – | inactive: 16.2% |
| Cn1nnnc1SCCCNCc1cccc(OCc2ccc(F)cc2)c1 | – | inactive: -8.79% |
| CC(=O)Nc1cccc(Oc2ccc(-c3noc(C)n3)cc2)c1 | inconclusive: 29.1 µM [cytotoxic, single point] | – |
| Cc1ccc(S(=O)(=O)N2[C@H](CC(=O)c3cccs3)OC[C@@H]2C(C)C)cc1 | active: 18.4 µM | – |
| Cc1cccc(N2CCN(C(=O)C3CCN(c4ncnc5c4nc4n5CCCCC4)CC3)CC2C)c1 (centres undefined) | inconclusive: 16.4 µM [cytotoxic, single point] | – |

Shown tab-delimited: 3 of the compounds above.
Compound	Potency	activity change, negative = cytotoxic
Cc1nc2c(OCCN3C(=O)c4ccccc4C3=O)cccn2c1N(C)C(=O)CCC1CCCC1	–	inactive: 0%
CCCCSc1ccc(NC(=O)c2cccnc2)cc1	inconclusive: 25.9 µM [cytotoxic, partial curve, poor fit]	–
Cc1ccc(C)c(N2CCN(C(=O)C3CCCN(c4ncnc5c4nc4n5CCCCC4)C3)CC2)c1 (centres undefined)	inconclusive: 29.1 µM [cytotoxic, single point]	–

More records:

| Compound | Potency | activity change, negative = cytotoxic |
| --- | --- | --- |
| COc1ccc(-n2c(C)cc(C3=NNC(=NC4CC4)SC3)c2C)cc1 | inconclusive: 29.1 µM [cytotoxic, single point] | – |
| CC(/C=C/c1ccccc1F)=N\NC(=O)c1ccccc1 | inconclusive: 29.1 µM [cytotoxic, single point] | – |
| CCN(CC)C(=S)SCC(=O)c1ccc(F)cc1 | inconclusive: 29.1 µM [cytotoxic, single point] | – |
| CCOC(=O)c1c(N=CN(C)C)c2cc([N+](=O)[O-])cnc2n1C | inconclusive: 25.9 µM [cytotoxic, partial curve, poor fit] | – |
| CCOC(=O)N1CCN(C(=O)c2ccc(Cn3c(=S)[nH]c4ccc(Br)cc4c3=O)cc2)CC1 | inconclusive: 16.4 µM [cytotoxic, partial curve, poor fit] | – |
| NC(=O)[C@H]1CC2(CC(c3cccc(NC(=O)COc4ccc(Cl)cc4)c3)=NO2)CN1C(=O)CC(c1ccccc1)c1ccccc1 (some centres undefined) | inconclusive: 29.1 µM [cytotoxic, single point] | – |
| CC1CCc2c(sc(NC(=O)c3c([N+](=O)[O-])cnn3C)c2C(N)=O)C1 (centres undefined) | – | inactive: 4.83% |
| CCc1nn(C(C)C(=O)N2CCN(c3ccccc3)CC2)c(=O)c2cc3occc3n12 (centres undefined) | inconclusive: 18.4 µM [cytotoxic, single point] | – |
| Cc1ccc(C)c(N2CCN(C(=O)C3CCN(S(=O)(=O)c4c(C)noc4C)CC3)CC2)c1 | active: 8.2 µM | – |
| Cc1c(C(=O)N(C)Cc2ccccc2)oc2c(Cl)cccc12 | inconclusive: 16.4 µM [cytotoxic, partial curve, poor fit] | – |
| CCOC(=O)N1CCN(Cc2ccc(O)c3ncccc23)CC1 | inconclusive: 23.1 µM [cytotoxic, single point] | – |
| CSc1ccc(CCNC(=O)c2ccc3c(Cl)c4c(nc3c2)CCCC4)cc1 | – | inactive: 1.07% |
| COc1ccccc1N1CCN(C(=O)C2CCC(Cn3c(=S)[nH]c4ccccc4c3=O)CC2)CC1 (centres undefined) | inconclusive: 28.2 µM [cytotoxic, single point] | – |
| CC(C)(C)c1ccc(C(=O)CS(=O)(=O)c2ccccc2)cc1 | – | inactive: -8.23% |
| CCc1nn(CC(=O)Nc2cccc(C(C)=O)c2)c(=O)c2cc3sccc3n12 | – | inactive: 5.88% |
| COc1ccc(C(=O)Nc2ccc3c(c2)nc2n3CCSC2)cc1 | inconclusive: 20.6 µM [cytotoxic, single point] | – |
| C=CCOc1ccc(/C(CC)=N/O)cc1OC | inconclusive: 25.9 µM [cytotoxic, single point] | – |
| O=C1c2cccc(OCC(=O)N3CCCc4ccccc43)c2CCN1Cc1cccnc1 | inconclusive: 4.61 µM [cytotoxic, partial curve] | – |
| c1ccc(-c2nc(NCCCn3ccnc3)c3oc4ccccc4c3n2)cc1 | inconclusive: 29.1 µM [cytotoxic, single point] | – |
| Cc1cccc(-n2cnc(C(=O)NNC(=S)Nc3ccccc3)c2)n1 | inconclusive: 25.9 µM [cytotoxic, single point] | – |
